The target of the test is estrogen receptor α (human) (UniProt P03372). The experiment in a line: co-IP; in TNBC cells; immunoprecipitated with Protein G Plus/Protein A agarose beads, Western blot detection; which protein was precipitated not given. For orientation: In western blotting, separated proteins are transferred to a membrane and probed.

Protein sequences, listed by entry. Tags and fused reporters are not part of them.
UniProt P03372: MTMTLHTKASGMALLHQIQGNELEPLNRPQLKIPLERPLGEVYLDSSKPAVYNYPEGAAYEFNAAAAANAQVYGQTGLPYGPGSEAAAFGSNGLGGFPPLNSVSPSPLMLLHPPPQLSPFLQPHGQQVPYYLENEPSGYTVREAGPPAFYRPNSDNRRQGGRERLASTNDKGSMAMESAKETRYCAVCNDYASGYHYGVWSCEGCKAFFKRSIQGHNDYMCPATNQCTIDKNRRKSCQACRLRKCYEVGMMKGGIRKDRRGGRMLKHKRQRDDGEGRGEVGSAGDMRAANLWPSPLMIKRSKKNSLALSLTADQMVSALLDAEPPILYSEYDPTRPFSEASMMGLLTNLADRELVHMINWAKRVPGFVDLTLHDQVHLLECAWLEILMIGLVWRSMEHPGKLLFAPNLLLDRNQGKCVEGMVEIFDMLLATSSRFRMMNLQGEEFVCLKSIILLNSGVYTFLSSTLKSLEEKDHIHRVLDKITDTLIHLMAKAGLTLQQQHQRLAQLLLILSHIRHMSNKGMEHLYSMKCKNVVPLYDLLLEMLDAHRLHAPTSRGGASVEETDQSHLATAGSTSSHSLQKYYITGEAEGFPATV

No constants are given. Whether binding was seen depends on the method and setting. Binding seen in cells or lysates may run through a third protein. Some binding calls cover weakened binding; strength is not graded here. Sequences can lack the tags named with a protein.

B1: UDP-glucuronosyltransferase UGT1A1 (enzyme, UniProt P22309-1 26-533)
chain: HAGKILLIPVDGSHWLSMLGAIQQLQQRGHEIVVLAPDASLYIRDGAFYTLKTYPVPFQREDVKESFVSLGHNVFENDSFLQRVIKTYKKIKKDSAMLLSGCSHLLHNKELMASLAESSFDVMLTDPFLPCSPIVAQYLSLPTVFFLHALPCSLEFEATQCPNPFSYVPRPLSSHSDHMTFLQRVKNMLIAFSQNFLCDVVYSPYATLASEFLQREVTVQDLLSSASVWLFRSDFVKDYPRPIMPNMVFVGGINCLHQNPLSQEFEAYINASGEHGIVVFSLGSMVSEIPEKKAMAIADALGKIPQTVLWRYTGTRPSNLANNTILVKWLPQNDLLGHPMTRAFITHAGSHGVYESICNGVPMVMMPLFGDQMDNAKRMETKGAGVTLNVLEMTSEDLENALKAVINDKSYKENIMRLSSLHKDRPVEPLDLAVFWVEFVMRHKGAPHLRPAAHDLTWYQYHSLDVIGFLLAVVLTVAFITFKCCAYGYRKCLGKKGRVKKAHKSKTH
B1: the binding entry is on record as “binds”.

The values above are taken from article PMC7479224.
